Results are given in words; binding and its absence hold for the method and conditions named. Binding seen in cells or lysates may run through a third protein. Some results given as binding are weak or reduced against the parent protein; the word gives no strength.
Target: Aβ42 (aggregation state not stated at the place of use) (UniProt P05067)
Experiment: co-immunoprecipitation, isolated nonTg cortical mitochondria treated with Aβ42 (0.8 µM)

Sequences of proteins named here, by UniProt entry; tags and fusion partners are left off. Residues count along the entry.
UniProt P05067, residues 672-713: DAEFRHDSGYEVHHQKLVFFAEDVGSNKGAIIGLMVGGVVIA
UniProt Q99KR7, residues 30-206: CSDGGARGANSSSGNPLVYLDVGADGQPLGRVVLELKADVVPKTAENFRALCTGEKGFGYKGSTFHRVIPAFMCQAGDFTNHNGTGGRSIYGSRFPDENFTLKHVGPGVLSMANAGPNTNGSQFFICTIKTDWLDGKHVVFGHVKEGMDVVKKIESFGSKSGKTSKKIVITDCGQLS

binding: binds
Substance: mouse CypD, endogenous, in brain mitochondria and cultured cortical neurons of nonTg and Tg mAPP mice (from UniProt Q99KR7 30-206) (enzyme)

Source: US20100291074A1, “CYCLOPHILIN D-AMYLOID BETA INTERACTION POTENTIATES MITOCHONDRIAL DYSFUNCTION IN A TRANSGENIC MOUSE MODEL OF ALZHEIMER'S DISEASE” (COLUMBIA UNIVERSITY IN THE CITY OF NEW YORK, priority 2007, published 2010)
